These results are taken from PubChem BioAssay AID1794845 (National Center for Advancing Translational Sciences (NCATS), 2023).

Protein sequences, listed by entry. Tags and fused reporters are not part of them. Lines headed by an entry give the natural chain unless they say otherwise; changes in a name come on top.
UniProt C7C422: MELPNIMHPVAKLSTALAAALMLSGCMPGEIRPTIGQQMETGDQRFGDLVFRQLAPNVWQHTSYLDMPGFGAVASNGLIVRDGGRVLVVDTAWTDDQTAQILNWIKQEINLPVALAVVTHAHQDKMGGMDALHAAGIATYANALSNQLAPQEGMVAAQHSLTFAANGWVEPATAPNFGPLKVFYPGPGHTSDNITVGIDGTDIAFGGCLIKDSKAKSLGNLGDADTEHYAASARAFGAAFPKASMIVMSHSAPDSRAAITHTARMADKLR

The whole screen tested about 6,900 compounds, of which fewer than 10 were called active. Calls follow the shape of the dose curve; as a rule, active = well fitted curve in the direction sought with a large enough effect; inconclusive = small, poorly fitted or top-dose-only effect, or another doubt; inactive = no such curve, though single readings can be large or run the other way. This is one part of the list.

In this test the target is Metallo-beta-lactamase type 2 (Klebsiella pneumoniae) (UniProt C7C422). Briefly: qHTS to identify inhibitors of the New Delhi Metallo-beta-lactamase (NDM): primary screen against the NCATS Gemini Collection. Also: % of control where 0% means no effect. The note with it: NDM-1 enzyme, meropenem hydrolysis, absorbance 300 nm; at 38.4 µM (top of the series) unless noted. From the text: Assay Submitter (PI): James Inglese Ph.D., Patricia Dranchak Ph.D., Mahesh Aitha Ph.D. Assay Development and Screening Technology Laboratory (ADST) National Center for Advancing Translational Sciences (NCATS), Rockville, MD National Institute of Health (NIH), Bethesda, Maryland The metallo-beta-lactamases (MBL) are a main antibiotic resistance mechanism evolved by bacteria. There is an urgent clinical need for MBL inhibitors to mitigate this growing threat. To support a machine-based learning study, qHTS has been used to experimentally test inhibitors identified by prediction tools.
PROTOCOL TABLE (as described by Inglese et al., 2007) SEQUENCE No. (e.g., 1, 2, 3, etc.); […] (e.g., enzyme, Incubation, Reagent, etc.); VALUE; DESCRIPTION 1; NDM-1; 4 uL of 3 nM enzyme [2 nM final] in 50 mM HEPES (pH 7.0), 1 uM […], 0.01% Tween20; Use BioRaptr to dispense into Aurora black, clear bottom low base 1536-well plates 2; Compounds; 23 nL; Use Pin Tool (Wako) to transfer DMSO control and library compounds in DMSO 3; Incubate; >30 min 4; Reagent; 2 uL of 150 uM meropenem [50 uM final] 5; Incubate; 30 min. 6; Detector; Absorbance at 300 nm (bandwidth = 5 nm, 25 flashes/well) on Tecan Infinity NOTES (numbers refer to sequence above) 1; Column 1 of each plate received assay buffer without enzyme and columns 2-48 received enzyme for a final assay concentration of 2 nM. 2; Control plate contained DMSO in columns 1, 2, 3, and 4. 3; Compound interaction with enzyme. 4; Meropenem substrate was prepared in the same assay buffer as step 1 for a final assay concentration of 50 uM and added to all wells across the assay plates. 5; Substrate interaction with enzyme, plateau phase of kinetics. 6; Default reader settings were applied for absorbance read at 300 nm, bandwidth = 5 nm, 25 flashes/well. References: Inglese J, Shamu CE, Guy RK. 2007. Reporting data from high-throughput screening of small-molecule libraries. Nat Chem Biol. doi:10.1038/nchembio0807-438 Yasgar A, Shinn P, Jadhav A, Auld D, Michael S, Zheng W, Austin CP, Inglese J, Simeonov A. 2008. Compound Management for Quantitative High-Throughput Screening. J Lab Autom 13:79 - 89. doi:10.1016/j.jala.2007.12.004
In general terms: In qHTS, concentration-response curves come from the screen itself.
Turning to `COc1cc2c(cc1OCC1CCCC1)N([S+](=O)([O-])c1ccc(Oc3ccccc3)cc1)CC21CCN(CC(=O)O)CC1`, the activity % (negative = inhibition) was inactive: 11%.

With `O=C(O)C1=NOC2CN(CC3CCCCC3)CC12` (centres undefined), the activity % (negative = inhibition) is inactive: -9.19% [at 57.5 µM].

For `CCn1ccc(C(=O)N2[C@H]3CC[C@@H]2c2cnc(C)nc2C3)n1`, the activity % (negative = inhibition) is inactive: -1.49%.

For `CCCN1CCN(C(=O)Cc2cccn2-c2ccc(F)cc2)CC1`, the activity % (negative = inhibition) is inactive: 13.5%.

Regarding `C#C[C@H]1CN2CC[C@H]1C[C@@H]2CNS(=O)(=O)CCC`, the activity % (negative = inhibition) was inactive: 3.97% [at 77.1 µM].

For the compound `CC(=O)c1cccc(NC(=O)OC[C@H]2C[C@@H]3CCN2C[C@@H]3c2cc(C3CCCC3)nc(C)n2)c1`, the activity % (negative = inhibition) was inactive: -1.82%.

In the case of `CCn1c(CO)nnc1C1CC(NC(=O)c2cnn(Cc3ccccc3)c2)C1` (centres undefined), the activity % (negative = inhibition) was inactive: 0.618%.

Consider `CS(=O)(=O)NC[C@H]1C[C@@H]2CCN1C[C@@H]2CN1CCc2ccccc2C1`, for which the activity % (negative = inhibition) is inactive: 2.32% [at 57.5 µM].

Consider `O=C(c1ccccc1)N1C[C@@H](c2ccc3c(c2)OCO3)[C@@H]2[C@H]1C1CCN2CC1`, for which the activity % (negative = inhibition) was inactive: 4.79%.

On to `NC(=O)c1ccc(N2CC3CCC(C2)N3CC(F)(F)F)nn1`, for which the activity % (negative = inhibition) was inactive: 32.7%.

Take `Cn1cccc1C(=O)C(=O)N1C[C@H](c2cc(F)cc(F)c2)[C@@H]2[C@H]1C1CCN2CC1`: the activity % (negative = inhibition) is inactive: -2.68%.

For `COc1ccc(C(=O)N2C[C@@H]3C[C@H](C2)c2ccc(NC(=O)CN(C)C)c(=O)n2C3)cc1`, the activity % (negative = inhibition) is inactive: 35% [at 57.5 µM].

With `CN1CCN([C@H]2[C@@H]3OC[C@@H](O3)[C@@H](NCc3ccccn3)[C@@H]2O)CC1`, the activity % (negative = inhibition) was inactive: 1.8% [at 57.5 µM].

With `CN(C)c1nc2c(c(N3C[C@H]4CNC[C@@]4(C(=O)O)C3)n1)CCCC2`, the activity % (negative = inhibition) is inactive: 24.6%.

With `COc1ccccc1CC(=O)N1CCN(C2CCN(C)C2=O)CC1` (centres undefined), the activity % (negative = inhibition) was inactive: -2.04%.

Regarding `Cc1ccc([C@H]2CN(C(=O)CN3C(=O)CNC3=O)[C@@H]3C4CCN(CC4)[C@H]23)cc1`, the activity % (negative = inhibition) was inactive: 1.79%.

In the case of `CC(C)N1CC2CCC(C1)N2S(=O)(=O)C1CC1`, the activity % (negative = inhibition) was inactive: 8.08% [at 57.5 µM].

As to `Cc1nc(-c2ccccc2)cc([C@H]2CN3CC[C@H]2C[C@@H]3CNS(C)(=O)=O)n1`, the activity % (negative = inhibition) is inactive: 1.31% [at 57.5 µM].

Consider `O=C(Nc1ccc(=O)n2c1[C@@H]1C[C@@H](CN(C(=O)NC3CCCCC3)C1)C2)c1ccco1`, for which the activity % (negative = inhibition) was inactive: 6.25% [at 57.5 µM].

For `COc1ccc([C@@H]2CN(C(=O)Cc3nonc3C)[C@@H]3C4CCN(CC4)[C@@H]32)cc1`, the activity % (negative = inhibition) is inactive: -1.27%.

With `N#Cc1ccccc1S(=O)(=O)N1C[C@@H]2C[C@H](C1)c1ccc(-c3ccc(Cl)cc3)c(=O)n1C2`, the activity % (negative = inhibition) is inactive: 8.06%.

As for `CCc1nc(C)c(C(=O)N2C[C@@H](c3ccc(F)cc3)[C@@H]3[C@H]2C2CCN3CC2)o1`, the activity % (negative = inhibition) is inactive: 4.42%.

With `CSCC(=O)Nc1ccc2n(c1=O)C[C@H]1C[C@@H]2CN(C(=O)CSCC(=O)O)C1`, the activity % (negative = inhibition) is inactive: 29.6% [at 57.5 µM].

Consider `COCC1CN(C)CC12CCN(Cc1cccnc1)CC2` (centres undefined), for which the activity % (negative = inhibition) was inactive: 1.85%.

`CCN1CCCN(C(=O)c2cccnc2)CC12CCOCC2`: the activity % (negative = inhibition) is inactive: 0.324%.

Regarding `Cc1cnc(C2CC2)n1C1CCNCC1`, the activity % (negative = inhibition) was inactive: -3.43%.

Consider `Cn1nc(-c2cccs2)cc1[C@H]1CN2CC[C@H]1C[C@@H]2CNC(=O)C1CCCCC1`, for which the activity % (negative = inhibition) is inactive: -0.312% [at 57.5 µM].

In the case of `O=C([C@H]1CN2CCC1C[C@@H]2Cn1cc(-c2ccccn2)nn1)N1CCOCC1` (some centres undefined), the activity % (negative = inhibition) is inactive: 2.46% [at 57.5 µM].

In the case of `CCCS(=O)(=O)NC[C@H]1C[C@@H]2CCN1C[C@@H]2c1cc(C2CCCCC2)nn1C`, the activity % (negative = inhibition) was inactive: -4.09% [at 57.5 µM].

Turning to `CN1CCN(C(=O)Cc2c[nH]c3ncc(-c4ccnn4C)cc23)CC1`, the activity % (negative = inhibition) is inactive: 10.4% [at 57.5 µM].

On to `CCCSc1ncc(CN2CCCC3(CCNC3)C2)cn1` (centres undefined), for which the activity % (negative = inhibition) was inactive: 7.23%.

Consider `CC[C@H]1CN2CC[C@H]1C[C@@H]2CN(Cc1cccs1)Cc1cccs1`, for which the activity % (negative = inhibition) was inactive: 8.69% [at 57.5 µM].

In the case of `O=C(Nc1ccc2n(c1=O)C[C@H]1C[C@@H]2CN(C(=O)c2ccccn2)C1)C1CCCCC1`, the activity % (negative = inhibition) is inactive: 14.3% [at 57.5 µM].

As to `CNc1ncc(C(=O)N2C[C@H]3COc4ccccc4C[C@@]3(C(=O)O)C2)cn1`, the activity % (negative = inhibition) is inactive: 1.15%.

Consider `CN(C)C(=O)CC1CCOC2(CCNCC2)C1` (centres undefined), for which the activity % (negative = inhibition) is inactive: 7.55%.

Regarding `CC(C)CC(=O)N1CC[C@@H]2COCCN(C)[C@@H]2C1`, the activity % (negative = inhibition) was inactive: 6.66%.

Turning to `C=C[C@H]1CN2CC[C@H]1C[C@@H]2CNS(=O)(=O)c1ccc(Cl)cc1`, the activity % (negative = inhibition) is inactive: 6.88% [at 57.5 µM].

Take `Cc1cc(C[C@@H]2COC[C@@H]2NC(=O)c2cn(C)c3ccccc23)on1`: the activity % (negative = inhibition) was inactive: 6.87%.

As for `CC(C)N1C[C@@H]2OCC(=O)N(Cc3ccccn3)[C@@H]2C1`, the activity % (negative = inhibition) was inactive: 18.4% [at 77.1 µM].

On to `COCCn1c(C)cc(C(=O)NC2CCc3nnc(C4CC4)n3CC2)c1C` (centres undefined), for which the activity % (negative = inhibition) is inactive: -1.19%.

`CC(C)N1CC2CCC(C1)N2Cc1cccs1`: the activity % (negative = inhibition) was inactive: 46.8% [at 57.5 µM].

In the case of `CC(C)(C)CC(=O)N1C[C@@H]2C[C@H](C1)c1ccc(NC(=O)c3ccco3)c(=O)n1C2`, the activity % (negative = inhibition) is inactive: 3.25% [at 57.5 µM].

Regarding `COc1ccccc1-c1cc([C@H]2CN3CC[C@H]2C[C@@H]3CNC(=O)N2CCOCC2)n(C)n1`, the activity % (negative = inhibition) was inactive: -2.92% [at 57.5 µM].

Consider `COc1cc2c(cc1OCc1ccncc1)NC(=O)C21CCN(Cc2ccccc2)CC1`, for which the activity % (negative = inhibition) is inactive: 4.33% [at 57.5 µM].

As to `C/C=C/CN1CC2ON=C(C(=O)O)C2C1` (centres undefined), the activity % (negative = inhibition) was inactive: 0.52% [at 77.1 µM].

Consider `COc1cc2c(cc1Oc1ccccc1)NC(=O)C21CCN(c2nc(C)cnc2C)CC1`, for which the activity % (negative = inhibition) is inactive: 5.27% [at 57.5 µM].

As for `CCN1C(=O)CCNCC12CCOCC2`, the activity % (negative = inhibition) was inactive: 39.8%.

With `CCCS(=O)(=O)N1C[C@@H]2C[C@H](C1)c1c(-c3ccccc3)ccc(=O)n1C2`, the activity % (negative = inhibition) was inactive: 44.9% [at 57.5 µM].

Regarding `CC(C)NC(=O)N1CC[C@@H](CC(=O)O)[C@@H](CCN2C[C@@H]3C[C@H](C2)c2cccc(=O)n2C3)C1`, the activity % (negative = inhibition) was inactive: 21.5%.
